Test results from PubChem BioAssay (EPA / NIEHS).
Several values for one entry are separate records, joined by “and”; a condition that tells them apart may be missing. Identical values can stand only once. The inconclusive results got no clear call from the source; some entries with a clear call stand among them for comparison. Where the call is inconclusive, the potency comes from a doubtful curve fit. Activity calls are given as the source filed them. The calls were made as follows: active = hit-call score of the fitted dose curve at least 0.9, where 1 is the maximum; inconclusive = response in the unintended direction; inactive = score below 0.9.

Chains of the proteins cited; added tags and fusions are not shown. Lines headed by an entry give the natural chain unless they say otherwise; changes in a name come on top.
UniProt Q13133, whole entry, looked up: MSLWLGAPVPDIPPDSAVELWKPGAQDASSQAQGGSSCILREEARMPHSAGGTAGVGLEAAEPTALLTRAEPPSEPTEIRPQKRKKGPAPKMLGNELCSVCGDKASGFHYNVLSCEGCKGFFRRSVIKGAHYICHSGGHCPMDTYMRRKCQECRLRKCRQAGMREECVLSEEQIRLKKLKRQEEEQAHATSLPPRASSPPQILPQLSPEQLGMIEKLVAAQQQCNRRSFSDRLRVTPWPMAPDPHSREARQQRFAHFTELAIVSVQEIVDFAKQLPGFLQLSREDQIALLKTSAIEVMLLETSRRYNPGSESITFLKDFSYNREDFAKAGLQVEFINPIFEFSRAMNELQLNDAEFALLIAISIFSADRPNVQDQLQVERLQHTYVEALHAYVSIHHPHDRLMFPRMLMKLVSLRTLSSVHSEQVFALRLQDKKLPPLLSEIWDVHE
UniProt P55055, whole entry, looked up: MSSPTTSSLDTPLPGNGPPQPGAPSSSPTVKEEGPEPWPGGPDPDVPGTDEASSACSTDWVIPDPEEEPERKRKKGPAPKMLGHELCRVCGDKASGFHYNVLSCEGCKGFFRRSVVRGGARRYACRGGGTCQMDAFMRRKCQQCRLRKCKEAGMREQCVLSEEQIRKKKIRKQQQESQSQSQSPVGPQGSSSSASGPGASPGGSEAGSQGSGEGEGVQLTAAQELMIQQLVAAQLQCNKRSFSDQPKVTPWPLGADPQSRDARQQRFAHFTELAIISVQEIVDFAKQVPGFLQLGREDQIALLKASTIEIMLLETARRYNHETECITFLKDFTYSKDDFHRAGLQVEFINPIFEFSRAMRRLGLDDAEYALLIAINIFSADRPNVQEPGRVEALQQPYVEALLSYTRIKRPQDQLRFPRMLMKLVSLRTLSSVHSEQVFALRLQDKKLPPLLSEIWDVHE
UniProt Q07869: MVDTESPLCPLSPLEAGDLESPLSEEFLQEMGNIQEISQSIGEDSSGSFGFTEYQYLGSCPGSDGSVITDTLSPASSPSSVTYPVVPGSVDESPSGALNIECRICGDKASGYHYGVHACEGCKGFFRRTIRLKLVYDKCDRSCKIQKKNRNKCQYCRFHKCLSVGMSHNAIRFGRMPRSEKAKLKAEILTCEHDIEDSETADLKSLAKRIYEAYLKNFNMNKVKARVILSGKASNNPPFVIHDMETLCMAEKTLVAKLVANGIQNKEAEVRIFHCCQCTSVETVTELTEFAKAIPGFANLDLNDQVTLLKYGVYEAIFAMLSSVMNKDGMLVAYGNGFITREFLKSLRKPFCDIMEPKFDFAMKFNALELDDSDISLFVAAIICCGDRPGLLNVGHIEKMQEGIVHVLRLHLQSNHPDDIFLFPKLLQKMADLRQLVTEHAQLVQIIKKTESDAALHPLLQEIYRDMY
UniProt P10826, whole entry, looked up: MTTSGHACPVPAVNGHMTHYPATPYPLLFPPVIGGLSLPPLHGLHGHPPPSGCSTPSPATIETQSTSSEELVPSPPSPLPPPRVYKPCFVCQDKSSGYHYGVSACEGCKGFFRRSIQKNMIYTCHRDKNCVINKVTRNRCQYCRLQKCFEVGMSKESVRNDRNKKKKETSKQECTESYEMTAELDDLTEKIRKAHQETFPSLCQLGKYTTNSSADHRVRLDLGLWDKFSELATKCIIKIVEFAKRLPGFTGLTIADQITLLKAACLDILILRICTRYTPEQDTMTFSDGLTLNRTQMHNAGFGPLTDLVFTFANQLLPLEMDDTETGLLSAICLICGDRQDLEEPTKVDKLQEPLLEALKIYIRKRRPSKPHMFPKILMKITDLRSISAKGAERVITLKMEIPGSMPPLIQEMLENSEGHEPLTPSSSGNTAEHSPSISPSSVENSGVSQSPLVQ
UniProt P10276, whole entry, looked up: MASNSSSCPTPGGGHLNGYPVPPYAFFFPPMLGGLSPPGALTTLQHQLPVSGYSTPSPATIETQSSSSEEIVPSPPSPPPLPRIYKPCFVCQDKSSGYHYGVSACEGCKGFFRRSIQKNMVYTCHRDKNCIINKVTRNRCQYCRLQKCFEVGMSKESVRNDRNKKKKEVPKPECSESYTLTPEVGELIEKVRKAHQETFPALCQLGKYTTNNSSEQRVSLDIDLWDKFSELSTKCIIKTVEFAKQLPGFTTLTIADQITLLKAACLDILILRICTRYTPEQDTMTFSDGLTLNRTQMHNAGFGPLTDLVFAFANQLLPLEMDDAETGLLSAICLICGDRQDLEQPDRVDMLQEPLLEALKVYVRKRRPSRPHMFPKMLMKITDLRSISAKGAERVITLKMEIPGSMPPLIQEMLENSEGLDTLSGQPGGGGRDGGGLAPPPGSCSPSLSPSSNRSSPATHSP
UniProt P13631, whole entry, looked up: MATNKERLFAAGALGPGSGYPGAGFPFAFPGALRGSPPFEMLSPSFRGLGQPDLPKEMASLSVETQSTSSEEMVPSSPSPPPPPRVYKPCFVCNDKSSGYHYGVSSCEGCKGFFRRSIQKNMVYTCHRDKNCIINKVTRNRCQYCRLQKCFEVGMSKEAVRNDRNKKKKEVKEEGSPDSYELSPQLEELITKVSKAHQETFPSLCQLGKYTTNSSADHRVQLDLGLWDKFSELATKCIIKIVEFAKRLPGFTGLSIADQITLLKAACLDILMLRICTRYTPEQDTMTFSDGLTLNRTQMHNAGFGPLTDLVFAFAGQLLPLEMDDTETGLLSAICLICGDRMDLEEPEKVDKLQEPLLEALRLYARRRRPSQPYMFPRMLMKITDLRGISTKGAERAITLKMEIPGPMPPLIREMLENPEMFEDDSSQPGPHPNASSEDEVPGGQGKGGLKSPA
UniProt Q92753: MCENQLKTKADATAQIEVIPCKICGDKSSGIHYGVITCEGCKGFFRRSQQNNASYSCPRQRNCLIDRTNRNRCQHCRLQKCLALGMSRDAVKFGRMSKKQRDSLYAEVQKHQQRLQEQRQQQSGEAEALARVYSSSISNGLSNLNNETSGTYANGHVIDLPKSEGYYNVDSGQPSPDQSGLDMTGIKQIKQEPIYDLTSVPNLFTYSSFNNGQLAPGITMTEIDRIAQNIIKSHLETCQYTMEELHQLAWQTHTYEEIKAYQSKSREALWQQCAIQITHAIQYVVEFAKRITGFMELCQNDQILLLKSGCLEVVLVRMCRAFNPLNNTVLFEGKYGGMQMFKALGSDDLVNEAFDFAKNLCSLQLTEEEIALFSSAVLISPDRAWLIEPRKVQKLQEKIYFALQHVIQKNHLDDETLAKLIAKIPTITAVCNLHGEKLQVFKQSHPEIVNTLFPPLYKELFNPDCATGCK
UniProt P28702: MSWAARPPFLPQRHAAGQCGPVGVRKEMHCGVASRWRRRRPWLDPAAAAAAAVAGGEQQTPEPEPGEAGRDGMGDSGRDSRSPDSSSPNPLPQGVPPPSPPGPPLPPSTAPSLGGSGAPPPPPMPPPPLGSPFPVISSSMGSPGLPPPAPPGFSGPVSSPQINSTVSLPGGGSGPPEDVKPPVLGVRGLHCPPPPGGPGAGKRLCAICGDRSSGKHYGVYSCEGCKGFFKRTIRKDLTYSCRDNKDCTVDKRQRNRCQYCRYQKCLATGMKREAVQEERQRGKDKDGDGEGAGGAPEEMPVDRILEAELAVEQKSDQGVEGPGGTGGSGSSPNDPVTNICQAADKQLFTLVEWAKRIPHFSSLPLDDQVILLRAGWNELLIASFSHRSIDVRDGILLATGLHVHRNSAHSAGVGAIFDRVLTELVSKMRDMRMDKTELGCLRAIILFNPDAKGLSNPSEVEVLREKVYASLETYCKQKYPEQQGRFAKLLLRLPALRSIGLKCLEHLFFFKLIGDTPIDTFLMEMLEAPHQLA
UniProt P62508: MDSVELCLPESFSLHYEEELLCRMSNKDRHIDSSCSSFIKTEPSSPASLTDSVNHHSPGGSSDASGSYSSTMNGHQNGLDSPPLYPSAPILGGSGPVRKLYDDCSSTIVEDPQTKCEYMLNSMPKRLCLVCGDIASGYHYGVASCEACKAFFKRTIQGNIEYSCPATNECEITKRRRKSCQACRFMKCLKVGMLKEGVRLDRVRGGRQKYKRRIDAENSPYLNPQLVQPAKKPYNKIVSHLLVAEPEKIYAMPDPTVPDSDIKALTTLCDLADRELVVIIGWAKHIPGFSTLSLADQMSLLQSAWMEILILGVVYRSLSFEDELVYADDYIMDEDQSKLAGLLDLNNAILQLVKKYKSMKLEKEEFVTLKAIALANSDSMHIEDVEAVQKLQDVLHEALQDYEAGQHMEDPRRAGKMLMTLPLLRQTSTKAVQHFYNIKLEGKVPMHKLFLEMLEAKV
UniProt P41235: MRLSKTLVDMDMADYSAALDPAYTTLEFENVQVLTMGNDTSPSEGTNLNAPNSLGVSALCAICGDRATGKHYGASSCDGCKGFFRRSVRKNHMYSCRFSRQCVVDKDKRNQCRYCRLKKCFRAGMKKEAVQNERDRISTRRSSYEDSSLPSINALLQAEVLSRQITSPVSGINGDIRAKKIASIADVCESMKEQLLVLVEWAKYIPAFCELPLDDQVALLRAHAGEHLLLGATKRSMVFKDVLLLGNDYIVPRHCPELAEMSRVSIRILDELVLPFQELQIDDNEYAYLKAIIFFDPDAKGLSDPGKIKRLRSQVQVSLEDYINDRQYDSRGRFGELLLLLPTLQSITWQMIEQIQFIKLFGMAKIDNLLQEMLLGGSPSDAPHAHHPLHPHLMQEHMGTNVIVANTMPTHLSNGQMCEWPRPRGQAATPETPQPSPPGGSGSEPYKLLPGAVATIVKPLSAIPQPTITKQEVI
UniProt P43354, whole entry, looked up: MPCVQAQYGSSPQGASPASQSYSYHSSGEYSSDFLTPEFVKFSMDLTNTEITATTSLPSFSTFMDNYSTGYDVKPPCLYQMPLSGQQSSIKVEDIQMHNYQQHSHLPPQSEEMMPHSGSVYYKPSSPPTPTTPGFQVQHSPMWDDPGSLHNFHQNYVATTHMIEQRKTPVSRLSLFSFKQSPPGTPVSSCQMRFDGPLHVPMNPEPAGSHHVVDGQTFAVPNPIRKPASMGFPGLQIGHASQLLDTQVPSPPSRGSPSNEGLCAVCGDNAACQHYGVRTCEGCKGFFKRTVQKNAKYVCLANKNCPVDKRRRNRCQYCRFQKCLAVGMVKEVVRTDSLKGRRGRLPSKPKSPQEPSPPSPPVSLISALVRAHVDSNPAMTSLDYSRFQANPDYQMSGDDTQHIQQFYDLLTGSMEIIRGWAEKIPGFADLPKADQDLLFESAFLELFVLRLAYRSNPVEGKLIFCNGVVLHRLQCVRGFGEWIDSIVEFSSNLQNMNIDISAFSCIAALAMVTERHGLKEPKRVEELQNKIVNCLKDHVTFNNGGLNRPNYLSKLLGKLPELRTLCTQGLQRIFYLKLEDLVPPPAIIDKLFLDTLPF
UniProt P51449: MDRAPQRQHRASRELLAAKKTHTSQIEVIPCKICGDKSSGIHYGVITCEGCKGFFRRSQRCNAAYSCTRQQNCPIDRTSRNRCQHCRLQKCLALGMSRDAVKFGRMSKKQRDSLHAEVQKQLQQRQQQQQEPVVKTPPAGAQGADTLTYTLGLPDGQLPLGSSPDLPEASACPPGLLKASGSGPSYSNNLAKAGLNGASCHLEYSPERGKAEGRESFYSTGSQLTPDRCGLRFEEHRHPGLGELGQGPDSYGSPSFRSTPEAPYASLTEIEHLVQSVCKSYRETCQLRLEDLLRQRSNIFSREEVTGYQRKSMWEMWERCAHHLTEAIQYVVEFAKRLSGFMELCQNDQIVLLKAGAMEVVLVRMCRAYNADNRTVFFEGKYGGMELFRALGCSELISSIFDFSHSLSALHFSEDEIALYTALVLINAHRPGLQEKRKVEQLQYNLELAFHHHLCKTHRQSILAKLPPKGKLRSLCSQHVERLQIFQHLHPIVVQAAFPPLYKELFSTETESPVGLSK
UniProt P19793: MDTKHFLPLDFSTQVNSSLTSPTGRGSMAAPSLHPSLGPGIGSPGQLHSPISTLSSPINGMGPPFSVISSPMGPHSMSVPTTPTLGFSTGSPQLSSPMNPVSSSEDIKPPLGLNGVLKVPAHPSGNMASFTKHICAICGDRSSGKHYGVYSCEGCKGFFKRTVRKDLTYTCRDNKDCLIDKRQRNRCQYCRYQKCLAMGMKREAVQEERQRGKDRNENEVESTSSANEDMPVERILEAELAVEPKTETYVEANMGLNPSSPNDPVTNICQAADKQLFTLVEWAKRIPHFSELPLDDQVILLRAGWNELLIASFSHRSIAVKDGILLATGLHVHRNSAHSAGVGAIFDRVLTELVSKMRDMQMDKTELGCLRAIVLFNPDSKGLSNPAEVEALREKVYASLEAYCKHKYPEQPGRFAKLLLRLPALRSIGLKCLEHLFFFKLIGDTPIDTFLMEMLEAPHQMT

Legend:
[1] = ATG_M_19_TRANS: Attagene TRANS-FACTORIAL HepG2 Assay for M19 Transcription Factor (Internal Marker) (AID 2282974); settings: HepG2 Attagene TRANS-FACTORIAL M19 internal marker reporter
Method in brief: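 Reporter mRNA induction was measured in transfected HepG2 cells 24 h after dosing. Endpoint fitted upward relative to DMSO and serves as a background control within the multiplexed TRANS panel.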

[2] = ATG_GAL4_TRANS: Attagene TRANS-FACTORIAL HepG2 Assay for GAL4 (Internal Marker) (AID 2282976); settings: HepG2 Attagene TRANS GAL4 internal marker reporter
Method in brief: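 In transfected human HepG2 liver cells dosed 24 h, GAL4 reporter mRNA serves as a baseline marker. Detection by RT-PCR with fluorescent capillary electrophoresis, activity fitted upward relative to DMSO.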

[3] = target: Oxysterols receptor LXR-alpha (Homo sapiens) (UniProt Q13133); assay: ATG_LXRa_TRANS: Attagene TRANS-FACTORIAL HepG2 Assay for human Liver X Receptor alpha (LXRa) (AID 2282980); settings: HepG2 Attagene TRANS reporter, LXRa transactivation
Method in brief: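 Chemical-induced reporter mRNA measured by RT-PCR with fluorescent labelling and capillary electrophoresis after 24 h dosing of transiently transfected HepG2 cells expressing exogenous NR-Gal4 chimeras; increases scored against DMSO baseline.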

[4] = target: Oxysterols receptor LXR-beta (Homo sapiens) (UniProt P55055); assay: ATG_LXRb_TRANS: Attagene TRANS-FACTORIAL HepG2 Assay for human Liver X Receptor beta (LXRb) (AID 2282981); settings: HepG2 Attagene TRANS GAL4-LXRb reporter, mRNA
Method in brief: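 Measures induction of a Gal4-driven reporter transcript in HepG2 cells expressing an exogenous LXRb-Gal4 fusion. Cells are exposed to compound for 24 h before RNA isolation and RT-PCR with capillary electrophoresis detection.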

[5] = target: human Peroxisome Proliferator-activated Receptor alpha (PPARa), PPARA (gene 5465) (UniProt Q07869); assay: ATG_PPARa_TRANS: Attagene TRANS-FACTORIAL HepG2 Assay for human Peroxisome Proliferator-activated Receptor alpha (PPARa) (AID 2283001);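 as to AC50: potency for gain of reporter signal over DMSO so agonist or activator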
Method in brief: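 Cells (HepG2) are transfected with multiple reporter transcription units, exposed to chemical for 24 h, then total RNA is reverse-transcribed and amplified. Labelled products are quantified by capillary electrophoresis; induction is referenced to DMSO.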

[6] = target: human Retinoic Acid Receptor beta (RARb), RARB (gene 5915) (UniProt P10826); assay: ATG_RARb_TRANS: Attagene TRANS-FACTORIAL HepG2 Assay for human Retinoic Acid Receptor beta (AID 2283004)
Method in brief: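 Induction of reporter mRNA from a chimeric RARb-Gal4 construct was measured by RT-PCR, FAM labelling, HpaI digestion and capillary electrophoresis. Measurements followed 24 h compound treatment of transiently transfected human HepG2 liver cells, with DMSO as baseline.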

[7] = target: Retinoic acid receptor alpha (Homo sapiens) (UniProt P10276); assay: ATG_RARa_TRANS: Attagene TRANS-FACTORIAL HepG2 Assay for human Retinoic Acid Receptor alpha (RARa) (AID 2283005);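 as to AC50: potency for increased reporter signal meaning RARa activation over DMSO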
Method in brief: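 HepG2 cells transiently transfected with multiple reporter units expressing chimeric RARα-GAL4 fusion, with GAL4-UAS-driven reporters. After 24 h compound exposure, reporter mRNA induction quantified by RT-PCR and capillary electrophoresis with fluorescent labeling; gain-of-signal fitted relative to DMSO control.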

[8] = target: human Retinoic Acid Receptor gamma (RARg), RARG (gene 5916) (UniProt P13631); assay: ATG_RARg_TRANS: Attagene TRANS-FACTORIAL HepG2 Assay for human Retinoic Acid Receptor gamma (RARg) (AID 2283009);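 also: AC50 is for reporter induction above DMSO meaning RARg activation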
Method in brief: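 TRANS format measured activity of exogenous NR-GAL4 fusion (RARg) in transfected HepG2 liver cells after 24 h dosing. Induced reporter RNA was detected by RT-PCR/capillary electrophoresis fluorescence, analysed in the positive direction against DMSO.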

[9] = target: human RAR-related Orphan Receptor beta (RORb), RORB (gene 6096) (UniProt Q92753); assay: ATG_RORb_TRANS: Attagene TRANS-FACTORIAL HepG2 Assay for human RAR-related Orphan Receptor beta (RORb) (AID 2283010);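 as to AC50: potency for increased reporter mRNA meaning activation of RORb-Gal4 chimera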
Method in brief: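 Transfect HepG2 with multiple GAL4-UAS reporter transcription units; dose chemicals for 24 h; isolate RNA, reverse-transcribe and PCR-amplify reporter sequences; label, digest and resolve fragments by capillary electrophoresis; fit increases relative to DMSO.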

[10] = target: human Retinoid X Receptor beta (RXRb), RXRB (gene 6257) (UniProt P28702); assay: ATG_RXRb_TRANS: Attagene TRANS-FACTORIAL HepG2 Assay for human Retinoid X Receptor beta (RXRb) (AID 2283013)
Method in brief: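 Chimeric receptor-Gal4 activity was assessed in transiently transfected human HepG2 cells after 24 h exposure. Transcripts from GAL4-UAS reporters were quantified by fluorescent RT-PCR and capillary electrophoresis, with DMSO as negative control and baseline.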

[11] = TOX21_p53_BLA_p2_viability: Viability Assessment in the Tox21 HCT-116 p53 Agonism Beta-lactamase Assay, Phase 2 (AID 2283591);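 also: compound exposure lasted 16 h at 37 °C; actives lower the ATP signal meaning cytotoxicity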
Method in brief: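 HCT-116 p53-bla cells (4000/well) rested 5 h at 37C, then received compounds in DMSO (217-fold dilution) for 16 h at 37C, 5% CO2. After the CCF4 read, CellTiter-Glo was added; ATP luminescence was read after 30 min at room temperature.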

[12] = TOX21_p53_BLA_p3_viability: Viability Assessment in the Tox21 HCT-116 p53 Agonism Beta-lactamase Assay, Phase 3 (AID 2283593);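 also: cells exposed to compound for 16 h before reading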
Method in brief: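 HCT-116 cells (4000/well) rested 5 h at 37C, then got DMSO compounds by pin tool (217-fold dilution) for 16 h at 37C, 5% CO2. After the bla read, CellTiter-Glo was added and luminescence read at 30 min, room temperature.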

[13] = TOX21_p53_BLA_p4_viability: Viability Assessment in the Tox21 HCT-116 p53 Agonism Beta-lactamase Assay, Phase 4 (AID 2283597);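 also: hits lower the luminescence signal meaning cytotoxicity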
Method in brief: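 Cytotoxicity as reduced cellular ATP (CellTiter-Glo luminescence, 30 min room temperature), measured in the same wells following the CCF4 FRET p53 reading. Human HCT-116 cells received compounds in DMSO (217-fold dilution) for 16 h.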

[14] = target: Estrogen-related receptor gamma (Homo sapiens) (UniProt P62508); assay: ATG_ERRg_TRANS: Attagene TRANS-FACTORIAL HepG2 Assay for human Estrogen-Related Receptor gamma (ERRg) (AID 2282977); settings: HepG2 Attagene TRANS reporter, ERRg transactivation;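 also: hits increase reporter signal over DMSO so potencies reflect activators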
Method in brief: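 Induction of reporter transcripts through a chimeric NR-Gal4 protein is quantified in transfected human HepG2 liver cells after 24 h chemical exposure, using RT-PCR with capillary electrophoresis detection and DMSO as baseline.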

[15] = target: Hepatocyte nuclear factor 4-alpha (Homo sapiens) (UniProt P41235); assay: ATG_HNF4a_TRANS: Attagene TRANS-FACTORIAL HepG2 Assay for human Hepatocyte Nuclear Factor 4 alpha (HNF4a) (AID 2282982); settings: HepG2 HNF4a transactivation reporter, mRNA readout
Method in brief: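 In this trans-factorial format, a chimeric HNF4a-GAL4 fusion drives a GAL4-UAS reporter in transfected HepG2 liver cells. After 24 h treatment, reporter mRNA induction is measured by RT-PCR with capillary electrophoresis, relative to DMSO.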

[16] = target: Nuclear receptor subfamily 4 group A member 2 (Homo sapiens) (UniProt P43354); assay: ATG_NURR1_TRANS: Attagene TRANS-FACTORIAL HepG2 Assay for human Nuclear Receptor Related Protein 1 (NURR1) (AID 2282985); settings: HepG2 Attagene TRANS reporter, mRNA readout
Method in brief: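 Chimeric NR-Gal4 fusion activity measured in HepG2 after 24 h treatment. Reporter transcripts detected by RT-PCR and capillary electrophoresis fluorescence; positive-direction curve fitting against DMSO.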

[17] = target: human RAR-related Orphan Receptor gamma (RORg), RORC (gene 6097) (UniProt P51449); assay: ATG_RORg_TRANS: Attagene TRANS-FACTORIAL HepG2 Assay for human RAR-related Orphan Receptor gamma (RORg) (AID 2283011);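 as to AC50: potency for induction of reporter transcripts above DMSO so activators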
Method in brief: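 Reporter transcripts from a transfected RORg-GAL4 chimera in HepG2 cells were quantified 24 h after dosing by RT-PCR, 6-FAM labelling, HpaI digestion and capillary electrophoresis; increases over DMSO baseline were fitted.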

[18] = target: Retinoic acid receptor RXR-alpha (Homo sapiens) (UniProt P19793); assay: OT_NURR1_NURR1RXRa_0480: Odyssey Thera (OT) 8-hour HEK293T Protein Complementation Assay for Nurr1/retinoid X receptor (RXR) (AID 2283385)
Method in brief: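 Interaction of bait and prey reconstitutes a functional reporter, whose fluorescence was measured in HEK293T cells dosed with compound for 8 hours. Signal gain relative to DMSO defined the single endpoint.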

[19] = target: Retinoic acid receptor RXR-alpha (Homo sapiens) (UniProt P19793); assay: OT_NURR1_NURR1RXRa_1440: Odyssey Thera (OT) 24-hour HEK293T Protein Complementation Assay for Nurr1/retinoid X receptor (RXR) (AID 2283386)
Method in brief: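 Steps: fragment-tagged Nurr1 and RXRα expressed in HEK293T; compounds added; after 24 h, complemented reporter quantified by fluorescence intensity; signal increase over DMSO fitted as the single endpoint.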

Measured: AC50

O=[N+]([O-])O.O=[N+]([O-])O.[Cd]
active: [11] 59.2 µM
inconclusive: [3] 11.1 µM | [5] 2.72 µM | [6] 11.1 µM | [7] 2.7 µM | [8] 11.1 µM | [10] 2.92 µM
inactive: [1] | [2] | [4] | [9] | [12] | [13]

CCOC(=O)N(C)N=O
inconclusive: [14] 100 µM | [15] 100 µM | [16] 100 µM | [6] 100 µM | [7] 100 µM | [8] 100 µM | [17] 100 µM | [10] 159 µM | [13] 46.1 µM
inactive: [1] | [3] | [4]

Cc1ccc2nc3sc(=O)sc3nc2c1
inactive: [5] | [6] | [7] | [9]
active: [15] 6.47 µM | [8] 17.7 µM
inconclusive: [1] 42.7 µM | [2] 6.26 µM | [10] 12 µM

CCCCN(CCCC)N=O
inactive: [2] | [15] | [5]
inconclusive: [1] 0.00914 µM | [4] 182 µM | [16] 100 µM | [9] 173 µM | [17] 6.34 µM | [18] 50 µM | [19] 50 µM | [11] 44.5 µM | [13] 44.5 µM

CCCCCCCCCCCCCCCC[N+](C)(C)C
inconclusive: [1] 100 µM | [4] 25.1 µM | [18] 24.2 µM | [19] 16.5 µM
inactive: [2] | [3] | [17]
active: [15] 27.6 µM | [5] 49.2 µM
